The values below come from patent publication EP0399716A1, “Hypoallergenic steroidal anesthetic/hypnotic compositions” (INNOVET, INC., priority 1989, dated 1990).

Data set [1] is described as follows: physchem. Conditions: aqueous with cosolvent or surfactant or cyclodextrin, thermodynamic from solid.
Data set [2] in a line: physchem. The following applies: water.
The conditions of data set [3]: pH 7.4.

≈ marks a conversion by molar mass, not a printed value.

Take `CC(=O)[C@H]1CC[C@H]2[C@@H]3CC[C@H]4C[C@H](O)CC[C@]4(C)[C@H]3C(=O)C[C@]12C` (stereo in doubt) [alfaxalone, 3α-hydroxy-5α-pregnane-11,20-dione]: the solubility in the data set “physchem [1]” was 76900 µg/mL (≈ 231000 µM); in the data set “physchem [2]”, below 5 µg/mL; in the data set “physchem [2]” (thermodynamic from solid), 3.6 µg/mL (≈ 10.8 µM). Besides, the “alfaxalone content per gram complex” value (43.5% w/v HPCD adjusted to pH 7, sonicated one hour, freeze-dried) came to 116.4 ± 1.1 mg per gram. For the same compound, for the setting “43.5% w/v HPCD, sonicated 24 hours, lyophilized”, the “active drug per gram of complex” value was found to be 126 mg per gram. For the same compound, in data set [3], the “effect of the buffer on complexation” value was “no significant effect”.

The solubility is the dissolved amount per volume that the medium holds.
